## Primary screen of a compound library

Measurements from “University of Dundee, Small-Polar-MMV Screening Library” (2021), ChEMBL document CHEMBL3988442.

Mtb growth Cornell: 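Whole-cell assay for inhibitors of Mycobacterium tuberculosis growth, labelled Cornell in the record; the read-out is not stated. The concentration is filed as 10 mM, unlikely as a test dose, so the dose is not known. Higher means stronger inhibition (inferred from two other growth screens of the library). About 53,000 compounds were tested under these conditions; 1.7% (about 900) showed 50% or more at least once.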
Mtb heat-shock: 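Assay on Mycobacterium tuberculosis, filed only as a heat shock assay from Cornell; the read-out is not stated. The concentration is filed as 10 mM, unlikely as a test dose, so the dose is not known. The record gives no direction; compounds that gave an IC50 in retests scored well above the rest, so higher reads as stronger inhibition. Size under these conditions: about 69,000 compounds, about 930 of them at 50% or above in at least one test.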

Each number is a percent effect as filed.
The record does not define 0% and 100%; most values in the screen are far below 50% and negative numbers occur (in some assays of this library far below -100).
This is an unselected part of the compounds tested.
A dash means the value is not listed here; it may have been measured.

| structure | Mtb growth Cornell | Mtb heat-shock |
|---|---|---|
| `CC(C)(C)SCC(=O)NC(C)(C(N)=O)c1cccc(Cl)c1` (centres undefined) | 16.37 | 12.55 |
| `Cc1cc(C)n(CC2CN(Cc3ccccn3)CCO2)n1` (centres undefined) | - | 4.223 |
| `CCNC(=O)Nc1ccc2c(ccn2CC(=O)N(CC)CC)c1` | - | 47.91 |
| `Cc1cnn(CC2CN(CCc3ccncc3)CCO2)c1` (centres undefined) | -32.37 | 2.869 |
| `O=C(C1CCCc2[nH]ncc21)N1CCCCCC1` (centres undefined) | 5.13 | 8.17 |
| `COc1cc(F)ccc1C(C(=O)O)N(C)CCN1CCOCC1` (centres undefined) | -0.2395 | 1.557 |
| `Cc1nc2n(n1)CC(NCC(=O)NCC1(c3ccccc3)CC1)CC2` (centres undefined) | 14.85 | -19.76 |
| `CCOc1ccc(Cl)c(C(=O)N2CCN(c3ncccn3)CC2)n1` | 0.6521 | -16.74 |
| `Cc1nnc(CN2CCN(CC(O)c3cccc(F)c3)CC2)n1C` (centres undefined) | - | -8.908 |
| `CC(C)N1CCC(NCc2cccnc2N(C)Cc2ccccc2)CC1` | 16.86 | -0.2204 |
| `Cc1noc(C)c1CCC(=O)N1CCN(Cc2cscn2)CC1` | - | 5.636 |
| `Cn1cc(S(=O)(=O)NC(CO)Cc2c[nH]c3ccccc23)cn1` (centres undefined) | 16.5 | 13.73 |
| `CSc1nnc(C2CCN(C(=O)N3CCOCC3)CC2)n1C(C)C` | -21.85 | -21.58 |
| `O=C1CCCCCN1Cc1nc(C2(c3ccc(F)cc3)CCOC2)no1` (centres undefined) | - | -6.718 |
| `Cc1cnn(C2CCCN(C(=O)c3cn4ccccc4n3)C2)c1` (centres undefined) | -37.45 | -32.79 |
| `CCn1c(CN2CCCN(C(=O)OC)CC2)nc2c(F)cccc21` | - | 22.87 |
| `[H][C@]12C[C@@H](Cn3cncn3)N(C(C)=O)[C@@]1([H])CCN(S(C)(=O)=O)C2` | -66.29 | -11.62 |
| `Cc1ccc(CNC2(Cc3cc(CO)on3)COC2)o1` | 17.58 | -16.96 |
| `CC(=O)NCCNC(=O)Nc1ccc(Br)cc1C(C)C` | -45.7 | -24.22 |
| `CCN(CC)CCCNCC1CCOC(C)(C)C1` (centres undefined) | - | -17.68 |
| `CCN(CC)S(=O)(=O)N(CC)Cc1ccc2c(c1)OCCO2` | - | -5.462 |
| `Cc1nc(CN2CCCC(Nc3ncnc4ccccc34)C2)no1` (centres undefined) | - | -2.151 |
| `Cc1cc(C(=O)NCC2COCc3c(C)nnn3C2)no1` (centres undefined) | -27.32 | -8.793 |
| `O=C(CCNC1(c2nccs2)CCCC1)N1CCOCC1` | 4.131 | -14.8 |
| `COCC(C)NC(=O)NCCCc1cc(N)n(-c2ccccc2)n1` (centres undefined) | 4.106 | -42.38 |
| `CCc1nnsc1C(=O)NCc1nnc2n1CCC2` | -5.822 | -7.718 |
| `O=C(NCCNS(=O)(=O)C1CCCCC1)c1ccccc1` | 20.3 | 0.2121 |
| `COc1cc(F)c(S(=O)(=O)Nc2cnc(O)cc2C)cc1OC` | 3.766 | 5.92 |
| `COCCCOc1ccc(C(=O)N(Cc2cnn(C)c2)C(C)C)cn1` | 12.05 | -4.161 |
| `Cc1cc2nc(SCC(=O)N3CCCC3)n(-c3ccccc3)c(=O)c2[nH]1` | 13.41 | 9.893 |
| `CN1CCC(NC(=O)c2cc(Cl)cc(Br)c2O)C1=O` (centres undefined) | 11.36 | 14.5 |
| `Cc1nonc1OCCNC(=O)COc1ccc(Cl)cc1Cl` | 17.56 | 37.05 |
| `Cc1noc(C)c1CN(Cc1ccccc1)C(C)C` | -22.55 | -19.1 |
| `CCN1CCN(c2ccc(C(=O)NCc3cc(C)no3)cc2F)CC1` | -13.98 | -10.38 |
| `O=C(O)C(F)(F)F.[H][C@]12CN(Cc3cccc(F)c3)C(=O)[C@@]1([H])CN(C1CCOCC1)C2` | 2.978 | -12.82 |
| `COCc1nc(CNC2CCN(C(C)C)CC2)no1` | - | 2.374 |
| `CC(=O)N(Cc1ncc(C)o1)C1CCN(CCn2cccn2)C1` (centres undefined) | -38.9 | -28.47 |
| `Cn1c(CN2CCN(CC3CC3)CC2)nnc1C1CCC1` | -8.201 | -3.238 |
| `CNC(=O)c1nc2c(s1)CCN(C(=O)c1ccccc1)CC2` | -4.42 | 2.615 |
| `CCNS(=O)(=O)C1CCN(C(=O)c2ccc(CC)o2)C1` (centres undefined) | 1.38 | 16.15 |
| `CSc1c[nH]nc1NS(=O)(=O)c1cc(F)ccc1C` | - | -19.6 |
| `CC(=O)N1CCCC1c1nc(N(C)C)ncc1-c1ccccc1` (centres undefined) | -25.06 | -14.81 |
| `CC(SCCC(=O)NC(N)=O)c1ccc(F)cc1F` (centres undefined) | 11.43 | -0.7615 |
| `COc1cc(C2SCC(=O)Nc3n[nH]cc32)cc(OC)c1O` (centres undefined) | 40.64 | 7.045 |
| `CCN(C)c1ncc2c(c1C(=O)O)CCN(C1CCOC1)C2.O=C(O)C(F)(F)F.O=C(O)C(F)(F)F` (centres undefined) | -0.1523 | -28.77 |
| `CSCC(C)(O)CNS(=O)(=O)c1ccc(Br)cc1` (centres undefined) | -1.428 | -39 |
| `CCC(O)Cn1cc(C2=CCN(Cc3cc(O)nc(C)n3)CC2)cn1` (centres undefined) | -27.55 | -30.56 |
| `CC(C)c1noc(OCC(=O)N2CCCCC2C)n1` (centres undefined) | -12.95 | 3.018 |
| `Cc1nc2c(c(N3CC=CC3)n1)CCN(c1ncccc1C(N)=O)CC2` | - | -11.76 |
| `[H][C@@]12C[C@H](C(=O)NC3CCC3)[C@@]([H])(CN(S(=O)(=O)c3cccc(C)c3)C1)O2` | 15.22 | 17.19 |
| `Cn1cccc1C(=O)N1CCc2ncnc(C3CC3)c2CC1` | - | -10.88 |
| `CN(Cc1ccc2c(c1)OCO2)Cc1nc2c(cnn2C)c(=O)[nH]1` | 27.13 | 19.82 |
| `COc1ccccc1CN(Cc1cccnc1)CC1CCCO1.O=C(O)CC(O)(CC(=O)O)C(=O)O` (centres undefined) | - | -6.871 |
| `Cc1cccc(N2CCN(C(=O)NC(C)c3nncn3C)CC2)c1C` (centres undefined) | 1.186 | -17.97 |
| `CNc1ncc(C(=O)N2CC[C@@](O)(C3CCOCC3)[C@H](C)C2)cn1` | 10.42 | -17.79 |
| `Cc1ccc(CNc2ccn(CCC(N)=O)n2)c(Br)c1` | - | -177.2 |
| `Cc1ccccc1CS(=O)(=O)CC(=O)N(C)Cc1cccc(F)c1` | 8.411 | 20.69 |
| `C/N=C1/c2cc3cc(OC)ccc3n2CCN1C` | - | 3.609 |
| `CCOc1cc(C(=O)N2CCOCC2)cc2occc12` | -17.85 | -6.326 |
| `[H][C@]12CCN[C@@]1([H])CN(C(=O)NCc1ccccc1)C2` | -32.91 | -21.64 |
| `Cc1nn(C)cc1-c1ccnc(N2CCSCC2)n1` | -2.845 | -18.09 |
| `CCSCc1nc(O)c2nnn(C3CCN(Cc4ccco4)CC3)c2n1` | -35.55 | -27.89 |
| `CC[C@H]1N(CC2CCC2)CCC[C@]12CCC(=O)N2Cc1ccncc1.O=C(O)C(F)(F)F.O=C(O)C(F)(F)F` | 23.16 | -6.265 |
| `COc1ccc2c(c1)nc1n2[C@@H](CNCc2nccs2)COC1` | - | 30.64 |
| `CCNc1nnc(SC(C(=O)NCc2cccnc2)C(C)C)s1` (centres undefined) | - | -7.8 |

The last 6 entries again:

{"structure": "[H][C@]12CCN[C@@]1([H])CN(C(=O)NCc1ccccc1)C2", "Mtb growth Cornell": -32.91, "Mtb heat-shock": -21.64}
{"structure": "Cc1nn(C)cc1-c1ccnc(N2CCSCC2)n1", "Mtb growth Cornell": -2.845, "Mtb heat-shock": -18.09}
{"structure": "CCSCc1nc(O)c2nnn(C3CCN(Cc4ccco4)CC3)c2n1", "Mtb growth Cornell": -35.55, "Mtb heat-shock": -27.89}
{"structure": "CC[C@H]1N(CC2CCC2)CCC[C@]12CCC(=O)N2Cc1ccncc1.O=C(O)C(F)(F)F.O=C(O)C(F)(F)F", "Mtb growth Cornell": 23.16, "Mtb heat-shock": -6.265}
{"structure": "COc1ccc2c(c1)nc1n2[C@@H](CNCc2nccs2)COC1", "Mtb heat-shock": 30.64}
{"structure": "CCNc1nnc(SC(C(=O)NCc2cccnc2)C(C)C)s1", "stereo": "centres undefined", "Mtb heat-shock": -7.8}